PubChem BioAssay AID2685 (National Center for Advancing Translational Sciences (NCATS), 2010)
The whole screen tested about 320,000 compounds, of which about 2,100 (0.66%) were called active. Inconclusive means that the source gave no clear call. Such entries were picked first, then a sample of the others. Calls come from the whole dose curve; as a rule, active = well fitted inhibition curve with a large enough effect in the signal ratio, with a control signal flat (not every such curve was filed as active); inconclusive = small, poorly fitted or top-dose-only effect, or effect the other way, or a change in a side signal; inactive = flat fitted curve, though single readings scatter; the % refers to the signal ratio. Potencies of inconclusive entries are doubtful fits and often do not repeat.

Assay: qHTS Assay for Lipid Storage Modulators in Drosophila S3 Cells
Conditions: BODIPY lipid droplet fluorescence, 18-24 h, cells fed with added oleic acid; lipid storage change, negative = inhibition: at 46.1 µM (top of the series) unless noted
Procedure, shortened: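 Laser-scanning cytometry quantifies lipid droplet accumulation (500–530 nm total intensity; droplet/cell object ratio) in oleic acid-fed (400 uM added) Drosophila S3 cells treated with a concentration series. 20 uM Triacsin C defined 100% inhibition.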
% is set by controls: 0 for no effect and ±100 for the full control effect; potency is the fitted concentration of half-maximal effect.

| Compound | Potency | lipid storage change, negative = inhibition |
| --- | --- | --- |
| COCCN(C(=S)Nc1cc(C)ccc1C)C(C)c1cccnc1 (configuration not stated) | inconclusive: 0.651 µM [activator, full curve] | – |
| O=C(N/N=C/c1ccc(OC(F)F)cc1)C1=COCCO1 | – | inconclusive: -10.1% |
| Cc1nc(-c2ccccc2)ccc1C(=O)O | – | inconclusive: -26.9% |
| CN(C(=O)COC(=O)c1cccc(S(=O)(=O)N(C)c2ccccc2)c1)C1CCCCC1 | – | inconclusive: 11.3% |
| Cc1ccc(C)c(/C=C2\N=C(c3ccccc3F)OC2=O)c1 | inconclusive: 6.51 µM [falling, single point] | – |
| Cc1cc(NS(=O)(=O)c2ccc(NC(=O)C(C)Oc3ccccc3Cl)cc2)no1 (configuration not stated) | – | inconclusive: 34.3% |
| CCOC(=O)C1CCCN(C(=O)CCCn2nc(C)n3c(cc4sccc43)c2=O)C1 (configuration not stated) | – | inconclusive: -53.7% |
| O=C(c1ccco1)N1CCN(c2nc(C3CC3)nc3c2nnn3Cc2ccccc2Cl)CC1 | – | inconclusive: -27.7% |
| COC(=O)c1cc2c(ccn2-c2ccc(F)cc2)n1CC(=O)OC(C)C | inconclusive: 13 µM [falling, partial curve, poor fit] | – |
| Cc1nc2cc(-c3sccc3-n3cccc3)nn2c(C)c1C | inconclusive: 16.4 µM [activator, partial curve] | – |
| Cc1ccc(CN2CCN(CC(=O)NC(C)c3ccc4c(c3)OCCO4)C2=O)cc1 (configuration not stated) | inconclusive: 3.66 µM [falling, single point] | – |
| COc1ccc(S(=O)(=O)NCCc2nnc3ccc(SCc4cccnc4)nn23)cc1 | – | inconclusive: 6.29% |
| CCCOC(=O)c1c(N)sc2c1CCC2 | inconclusive: 29.1 µM [activator, single point] | – |
| Cc1ccc(NC2CCCN(C(=O)CCc3ccncc3)C2)cc1C (configuration not stated) | – | inconclusive: -26.6% |
| O=C1CS/C(=N\N=C\c2ccco2)N1c1ccccc1 | – | inconclusive: -9.29% |
| CN(C)S(=O)(=O)c1ccc(NC(=O)C2CC(=O)N(Cc3ccccc3)C2)cc1 (configuration not stated) | – | inactive |
| Cc1nn(C)c(C)c1C1C(C#N)=C(N)Oc2n[nH]c(C)c21 (configuration not stated) | – | inconclusive: 9.12% |
| O=C(NCc1cc(C(F)(F)F)cc(C(F)(F)F)c1)C1CC(c2c(Cl)cccc2Cl)=NO1 (configuration not stated) | inconclusive: 32.6 µM [falling, single point] | – |
| COc1ccc(N2CCN(CCNC(=O)c3ccc4c(c3)[nH]c(=S)n3c5ccccc5nc43)CC2)cc1 | – | inconclusive: 3.91% |
| CCc1noc(C)c1C(=O)OCC(=O)Nc1cccc(C)c1 | inconclusive: 0.184 µM [activator, full curve, poor fit] | – |
| CCOC(=O)c1cc(NC(=O)N(CC)C2CCCCC2)c(C)nc1C | inconclusive: 9.2 µM [activator, partial curve] | – |
| CCCc1nnc(NS(=O)(=O)c2ccc(OC)cc2)s1 | inconclusive: 0.0046 µM [falling, full curve, poor fit] | – |
| Clc1ccc(OCCCNCc2ccccc2)c2ccccc12 | inconclusive: 14.6 µM [cytotoxic, single point] | – |
| O=[N+]([O-])c1cc(S(=O)(=O)Nc2cccc(Cl)c2)ccc1N=Nc1c(O)[nH]c2ccccc12 | inconclusive: 29.1 µM [cytotoxic, single point] | – |

A different layout for part of the listing above:
Compound	Potency	lipid storage change, negative = inhibition
CCCOC(=O)c1c(N)sc2c1CCC2	inconclusive: 29.1 µM [activator, single point]	–
Cc1ccc(NC2CCCN(C(=O)CCc3ccncc3)C2)cc1C (configuration not stated)	–	inconclusive: -26.6%

Reprinted from the results shown, 2 compounds:

| Compound | Potency | lipid storage change, negative = inhibition |
| --- | --- | --- |
| Cc1ccc(C)c(/C=C2\N=C(c3ccccc3F)OC2=O)c1 | inconclusive: 6.51 µM [falling, single point] | – |
| Cc1cc(NS(=O)(=O)c2ccc(NC(=O)C(C)Oc3ccccc3Cl)cc2)no1 (configuration not stated) | – | inconclusive: 34.3% |

Going on with the list.

| Compound | Potency | lipid storage change, negative = inhibition |
| --- | --- | --- |
| COc1ccc(CCNC(=O)CSc2nc(=O)[nH]c3c2CCC3)cc1OC | – | inconclusive: 38.2% [activator] [at 0.0737 µM] |
| COc1cccc(C(=O)Nc2ccc(NC(=O)Cc3ccccc3)cc2)c1 | inconclusive: 14.6 µM [falling, partial curve] | – |
| Cn1c(=S)[nH]c2scc(-c3cccs3)c2c1=O | – | inconclusive: -0.912% |
| Cc1cccc(NS(=O)(=O)c2cccc3nonc23)c1 | inconclusive: 0.651 µM [activator, partial curve, poor fit] | – |
| COC(=O)C1(Cc2cc(-c3ccc(Cl)cc3)no2)CCN(C(=O)OC(C)(C)C)CC1 | – | inconclusive: 79.4% |
| CCC1C(=O)N=C(SCC(=O)Nc2ccccc2)NC1=O (configuration not stated) | – | inactive |
| O=C(c1ccc([N+](=O)[O-])o1)N(Cc1nnc(-c2ccccc2Cl)o1)C1CC1 | – | inconclusive: -8.63% |
| COc1ccc(-c2cnc(N)n2C)cc1 | – | inconclusive: -18.7% |
| COc1ccc(CC2(CO)CCN(S(=O)(=O)c3cccc4cccnc34)CC2)cc1 | – | inconclusive: 1.27% |
| CCC(OC(=O)c1ccco1)C(=O)NCc1ccc(OC)cc1 (configuration not stated) | inconclusive: 5.17 µM [falling, single point] | – |
| CN(Cc1ccccc1F)c1ncnc2sccc12 | inconclusive: 18.4 µM [activator, partial curve] | – |
| Cc1ccc(S(=O)(=O)NC(=NC(C)C)c2ccccc2)cc1 | – | inconclusive: 25.8% |
| CCOc1ccc(C2(C)NC(=O)N(CCN(C)C)C2=O)cc1 (configuration not stated) | – | inconclusive: -5.18% |
| CC(C)CN(CCNC(=O)CN1N=C(c2ccc(Cl)cc2)CCC1=O)CC(C)C | – | inconclusive: 14.5% |
| Cc1nn(CCOc2cccc(Br)c2)c(C)c1[N+](=O)[O-] | – | inconclusive: 6.22% |
| Cc1ccc(C(=O)NCCNS(=O)(=O)c2ccccc2[N+](=O)[O-])cc1 | inconclusive: 1.64 µM [activator, full curve] | – |
| Cc1cccc(OCC(=O)OC(C)CN2CCCCC2)c1 (configuration not stated) | inconclusive: 4.11 µM [activator, single point] | – |
| Cc1ccc(-c2nc(N)c3c(-c4ccc(C)cc4)nn(C(C)(C)C)c3n2)cc1 | – | inconclusive: -27.2% |
| CC1(C(=O)NC2CCCCCCC2)CCC(=O)N1Cc1cccs1 (configuration not stated) | – | inconclusive: 32.2% |
| O=C(NNC(=O)c1ccccc1-c1ccccc1C(=O)O)c1ccccc1 | – | inconclusive: 27.5% |
| Cn1ccsc1=NC(=O)c1ccc(Cl)c([N+](=O)[O-])c1 | inconclusive: 0.116 µM [falling, full curve, poor fit] | – |
| C=CCNCC#CCOc1ccc(OC)cc1 | inconclusive: 0.461 µM [falling, full curve] | – |
| CCCCCc1nnc(NC(=O)NS(=O)(=O)c2ccc(C)cc2)s1 | inconclusive: 0.116 µM [activator, full curve, poor fit] | – |
